Measured data: PubChem BioAssay AID1159578 (Peter MacCallum Cancer Centre, 2015)

- Assay: 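Genome-wide hunt for genes controlling movement of lymphatic endothelial cells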 (primary screen)
- Cells: human lymphatic endothelial cells
- Reagents: siRNA pool against human genes, 40 nM
- Duration: 48 h after transfection
- Detection: 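Cells stained with dye and imaged after a scratch; covered wound area and nuclei counted, duplicates averaged, migration set against mock wells and turned into a robust z-score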
- Scale: migration robust z-score: higher = faster migration into the scratch; nuclei per well: higher = more cells in the well
- Call rule: 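Pools averaging fewer than 3300 nuclei are never called; remaining pools count as changed when migration robust z lies outside -2 to 2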
- Meaning of the calls: active = migration changed; inactive = no migration change, or too few cells
Shown is one part, drawn at random, of about 18,000 reagents. About 1,030 of all reagents (5.7%) were called active. 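Inactive calls also include pools with fewer than 3300 nuclei, whose migration was not assessed.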 The raw values are shown without normalisation. Entries without a mark were called inactive. Further read-outs or replicates are left out here.

How did the screen score ERLIN2 (ER lipid raft associated 2)?
migration robust z-score: 0.82; migration class with cell-count check: migration z between -2 and 2; enough cells; nuclei per well, duplicate mean: 5220

With PPP4C (protein phosphatase 4 catalytic subunit), how do the results read?
migration robust z-score: 0.28; migration class with cell-count check: migration z between -2 and 2; enough cells; nuclei per well, duplicate mean: 4586

What did the screen give for RYR1 (ryanodine receptor 1)?
migration robust z-score: -1.66; migration class with cell-count check: migration z between -2 and 2; enough cells; nuclei per well, duplicate mean: 5564

How did the screen score GRB7 (growth factor receptor bound protein 7)?
migration robust z-score: -0.86; migration class with cell-count check: migration z between -2 and 2; enough cells; nuclei per well, duplicate mean: 6673

What is on record for EXOSC8 (exosome component 8)?
migration robust z-score: 0.29; migration class with cell-count check: migration z between -2 and 2; enough cells; nuclei per well, duplicate mean: 4947

For KATNAL2 (katanin catalytic subunit A1 like 2), how do the results read?
migration robust z-score: -0.68; migration class with cell-count check: migration z between -2 and 2; enough cells; nuclei per well, duplicate mean: 7764

What is on record for BMP5 (bone morphogenetic protein 5)?
migration robust z-score: 1.56; migration class with cell-count check: migration z between -2 and 2; enough cells; nuclei per well, duplicate mean: 6329

How did the screen score NOL6 (nucleolar protein 6)?
migration robust z-score: 0.08; migration class with cell-count check: migration z between -2 and 2; enough cells; nuclei per well, duplicate mean: 4892

With SULT1B1 (sulfotransferase family 1B member 1), how do the results read?
migration robust z-score: -0.78; migration class with cell-count check: migration z between -2 and 2; enough cells; nuclei per well, duplicate mean: 4452

What did the screen give for CELF1 (CUGBP Elav-like family member 1)?
migration robust z-score: 0; migration class with cell-count check: migration z between -2 and 2; enough cells; nuclei per well, duplicate mean: 6465

How did the screen score PDZK1 (PDZ domain containing 1)?
migration robust z-score: 0.31; migration class with cell-count check: migration z between -2 and 2; enough cells; nuclei per well, duplicate mean: 6772

With CTXN1 (cortexin 1), what was measured?
migration robust z-score: -2.16 (active); migration class with cell-count check: migration z below -2; enough cells; nuclei per well, duplicate mean: 5431

With RPL18P4 (ribosomal protein L18 pseudogene 4), how do the results read?
migration robust z-score: 1.04; migration class with cell-count check: migration z between -2 and 2; enough cells; nuclei per well, duplicate mean: 6471

How did the screen score UGGT1 (UDP-glucose glycoprotein glucosyltransferase 1)?
migration robust z-score: 0.62; migration class with cell-count check: migration z between -2 and 2; enough cells; nuclei per well, duplicate mean: 5384

Which result is listed for TXNDC8 (thioredoxin domain containing 8)?
migration robust z-score: -0.26; migration class with cell-count check: migration z between -2 and 2; enough cells; nuclei per well, duplicate mean: 5709

What did the screen give for ALPG (alkaline phosphatase, germ cell)?
migration robust z-score: 0.36; migration class with cell-count check: migration z between -2 and 2; enough cells; nuclei per well, duplicate mean: 4217

For CALHM2 (calcium homeostasis modulator family member 2), what was measured?
migration robust z-score: -0.22; migration class with cell-count check: migration z between -2 and 2; enough cells; nuclei per well, duplicate mean: 5146

With TAOK3 (TAO kinase 3), how do the results read?
migration robust z-score: 0.16; migration class with cell-count check: migration z between -2 and 2; enough cells; nuclei per well, duplicate mean: 5930

For RAD52 (RAD52 DNA repair protein), how do the results read?
migration robust z-score: -0.62; migration class with cell-count check: migration z between -2 and 2; enough cells; nuclei per well, duplicate mean: 6186

With DEFB104A (defensin beta 104A), what was measured?
migration robust z-score: -1.1; migration class with cell-count check: migration z between -2 and 2; enough cells; nuclei per well, duplicate mean: 4010

Which result is listed for EMG1 (EMG1 N1-specific pseudouridine methyltransferase)?
migration robust z-score: 2.58 (active); migration class with cell-count check: migration z above 2; enough cells; nuclei per well, duplicate mean: 5456

For RSPRY1 (ring finger and SPRY domain containing 1), how do the results read?
migration robust z-score: 0.9; migration class with cell-count check: migration z between -2 and 2; enough cells; nuclei per well, duplicate mean: 5132

What did the screen give for PDGFRL (platelet derived growth factor receptor like)?
migration robust z-score: 0.05; migration class with cell-count check: migration z between -2 and 2; enough cells; nuclei per well, duplicate mean: 4934

Which result is listed for YARS1 (tyrosyl-tRNA synthetase 1)?
migration robust z-score: -0.36; migration class with cell-count check: migration z between -2 and 2; enough cells; nuclei per well, duplicate mean: 7154

With IFI30 (IFI30 lysosomal thiol reductase), what was measured?
migration robust z-score: 0.18; migration class with cell-count check: migration z between -2 and 2; enough cells; nuclei per well, duplicate mean: 5692

How did the screen score ABCF1 (ATP binding cassette subfamily F member 1)?
migration robust z-score: -0.36; migration class with cell-count check: migration z between -2 and 2; enough cells; nuclei per well, duplicate mean: 6632

What is on record for EIF2S1 (eukaryotic translation initiation factor 2 subunit alpha)?
migration robust z-score: 0.46; migration class with cell-count check: migration z between -2 and 2; enough cells; nuclei per well, duplicate mean: 5116

Entries listed so far whose target name starts with R or r (4):
RYR1 (ryanodine receptor 1): migration robust z-score = -1.66; migration class with cell-count check = migration z between -2 and 2; enough cells; nuclei per well, duplicate mean = 5564
RPL18P4 (ribosomal protein L18 pseudogene 4): migration robust z-score = 1.04; migration class with cell-count check = migration z between -2 and 2; enough cells; nuclei per well, duplicate mean = 6471
RAD52 (RAD52 DNA repair protein): migration robust z-score = -0.62; migration class with cell-count check = migration z between -2 and 2; enough cells; nuclei per well, duplicate mean = 6186
RSPRY1 (ring finger and SPRY domain containing 1): migration robust z-score = 0.9; migration class with cell-count check = migration z between -2 and 2; enough cells; nuclei per well, duplicate mean = 5132
